# Patent US20100280227A1
# The chains behind the UniProt entries cited, without tags or fusion partners. Where a name states a change or a piece, a line headed by the entry shows the natural chain unless it says otherwise.
# UniProt Q96RJ3: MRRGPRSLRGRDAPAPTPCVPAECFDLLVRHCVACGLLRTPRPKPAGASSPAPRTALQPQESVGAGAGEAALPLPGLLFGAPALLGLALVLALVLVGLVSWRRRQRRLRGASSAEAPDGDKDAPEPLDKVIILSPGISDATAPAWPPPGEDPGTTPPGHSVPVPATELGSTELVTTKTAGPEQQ
# Results are given in words; binding and its absence hold for the method and conditions named. Some results given as binding are weak or reduced against the parent protein; the word gives no strength.
# T1: mouse BR3 (form in the mapping assay not stated) (mouse) (UniProt Q9D8D0)
# T1 sequence (looked up): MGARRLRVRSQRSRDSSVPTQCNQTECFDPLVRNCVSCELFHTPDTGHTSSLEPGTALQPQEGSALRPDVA
# Assays:
# [1] = target: human BR3 extracellular domain (human) (UniProt Q96RJ3); assay: SPR with Fab
# [2] = target: human BR3 extracellular domain (human) (UniProt Q96RJ3); assay: SPR with expressed Fab
# [3] = target: T1, mouse BR3 (form in the mapping assay not stated) (mouse); assay: competition ELISA on murine BR3 against biotinylated V3-1m
# [4] = target: T1, mouse BR3 (form in the mapping assay not stated) (mouse); assay: epitope mapping by competition (FIG. 22)
binding [1],binding [2],binding [3],binding [4],Binder
binds,binds,,,"Hu2.1-30 Fab (Fab, V domains shown) VH: EVQLVESGGGLVQPGGSLRLSCAASGDSITRGYWNWVRQAPGKGLEWVGYINYSGTTYYNPSLKSRFTISRDTSKNTFYLQMNSLRAEDTAVYYCANLNYYGAMDYWGQGTLVTVSS VL: DIQMTQSPSSLSASVGDRVTITCRASESVDDYGISFMHWYQQKPGKAPKLLIYRASDLESGVPSRFSGSGSGTDFTLTISSLQPEDFATYYCQQTSKDPWTFGQGTKVEIKR"
,,binds,binds,"V3-1m (antibody, mouse IgG2a, V domains shown) VH: EVQLVESGGGLVQPGGSLRLSCAASGFTISSNSIHWVRQAPGKGLEWVAWITPSDGNTDYADSVKGRFTISADTSKNTAYLQMNSLRAEDTAVYYCARRVCYNRLGVCAGGMDYWGQGTLVTVSS VL: DIQMTQSPSSLSASVGDRVTITCRASQDVSTAVAWYQQKPGKAPKLLIYSASFLYSGVPSRFSGSGSGTDFTLTISSLQPEDFATYYCQQSRITPPTFGQGTKVEIKR"
